Measured values from patent US20160347843A1.
These are yes or no findings as the source states them, for the method shown. Some results given as binding are weak or reduced against the parent protein; the word gives no strength.

The chains behind the UniProt entries cited, without tags or fusion partners. Where a name states a change or a piece, a line headed by the entry shows the natural chain unless it says otherwise.
UniProt P17948: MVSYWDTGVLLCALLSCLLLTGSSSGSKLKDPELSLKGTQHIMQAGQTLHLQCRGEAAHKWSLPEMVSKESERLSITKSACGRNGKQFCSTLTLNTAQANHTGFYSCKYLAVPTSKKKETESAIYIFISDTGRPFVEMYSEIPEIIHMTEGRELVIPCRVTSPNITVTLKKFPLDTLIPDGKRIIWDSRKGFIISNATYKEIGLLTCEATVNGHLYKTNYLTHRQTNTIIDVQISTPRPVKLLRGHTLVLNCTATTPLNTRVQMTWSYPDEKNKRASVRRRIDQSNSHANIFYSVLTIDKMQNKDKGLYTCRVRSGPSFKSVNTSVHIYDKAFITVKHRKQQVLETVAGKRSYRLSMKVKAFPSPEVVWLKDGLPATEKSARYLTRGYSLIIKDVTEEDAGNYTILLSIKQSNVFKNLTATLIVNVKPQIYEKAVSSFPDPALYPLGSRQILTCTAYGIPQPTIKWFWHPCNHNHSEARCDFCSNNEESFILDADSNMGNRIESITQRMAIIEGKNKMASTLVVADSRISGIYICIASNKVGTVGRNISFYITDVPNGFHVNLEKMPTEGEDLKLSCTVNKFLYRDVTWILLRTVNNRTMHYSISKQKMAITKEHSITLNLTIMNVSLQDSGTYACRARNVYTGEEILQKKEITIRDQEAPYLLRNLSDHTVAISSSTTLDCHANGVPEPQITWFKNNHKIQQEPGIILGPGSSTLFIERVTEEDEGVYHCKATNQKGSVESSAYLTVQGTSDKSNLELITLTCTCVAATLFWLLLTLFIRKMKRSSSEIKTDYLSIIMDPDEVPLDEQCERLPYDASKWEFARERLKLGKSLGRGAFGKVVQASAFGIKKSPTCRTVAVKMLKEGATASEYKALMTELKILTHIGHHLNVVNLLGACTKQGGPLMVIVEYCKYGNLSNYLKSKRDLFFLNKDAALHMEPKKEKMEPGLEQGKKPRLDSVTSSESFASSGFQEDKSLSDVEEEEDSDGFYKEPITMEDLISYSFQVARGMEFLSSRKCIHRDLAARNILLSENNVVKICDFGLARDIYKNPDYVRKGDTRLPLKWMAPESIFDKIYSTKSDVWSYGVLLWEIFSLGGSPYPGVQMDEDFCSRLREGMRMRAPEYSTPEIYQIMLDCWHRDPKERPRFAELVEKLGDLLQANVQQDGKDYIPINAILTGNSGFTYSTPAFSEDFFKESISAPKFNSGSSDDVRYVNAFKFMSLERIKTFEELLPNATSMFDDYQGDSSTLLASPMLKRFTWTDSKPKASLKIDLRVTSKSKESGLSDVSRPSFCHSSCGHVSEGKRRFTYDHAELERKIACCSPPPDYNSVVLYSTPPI

Legend:
[1] = target: recombinant human sFlt1-1 with C-terminal 6-histidine tag, expressed in CHO cells (human) (UniProt P17948); assay: ELISA
[2] = target: recombinant human sFlt1-1 with C-terminal 6-histidine tag, expressed in CHO cells (human) (UniProt P17948); assay: capture ELISA
[3] = target: recombinant human sFlt1-1 with C-terminal 6-histidine tag, expressed in CHO cells (human) (UniProt P17948); assay: western blot, recombinant standards
[4] = target: recombinant human sFlt1-1 with C-terminal 6-histidine tag, expressed in CHO cells (human) (UniProt P17948); assay: western blot, reducing SDS-PAGE, nitrocellulose, probed with 1C-KLH-18, HRP anti-mouse secondary
[5] = target: recombinant human sFlt1-1 with C-terminal 6-histidine tag, expressed in CHO cells (human) (UniProt P17948); assay: capture ELISA: plate coated with anti-sFlt human antibody, recombinant sFlt1-1 titrated, detected with 1CKLH18 and anti-mouse conjugate, OD405

Measured: binding

B1: mouse mAb 1C-KLH-18 (antibody, V domains shown)
VH: EVQLQQSGAELVRPGASVKLSCTASGVNIKDDYMNWVNQRPEQGLEWIGWIDPENGDTEYASKFQGKATITADTSSNTAYLQLSSLTSEDTAVYYCAAGYDYFPFVYWGQGTLVAVSA
VL: DVLMSQTPLSLPVSLGDQASISCRSSQNIVHSNGNTYLEWYLQKPGQSPKLLIHKVSNRFSGVPDRFSGSGSGTDFTLKISRVEAEDLGVYYCFQGSHVPFTFGSGTKLEKK
binds: all assays above
